According to paper doi:10.1101/2020.03.12.989608:
No constants are given. Whether binding was seen depends on the method and setting. Binding calls can cover weak binding; strength is not graded here. Tags and fused reporters may be left off the sequences shown.

Key:
[1] = molecular target: T1, GST-TNPO3 (human transportin-3, from pGEX6P3.hTNPO3) (human) (UniProt Q9Y5L0); assay: pull-down
T1 sequence: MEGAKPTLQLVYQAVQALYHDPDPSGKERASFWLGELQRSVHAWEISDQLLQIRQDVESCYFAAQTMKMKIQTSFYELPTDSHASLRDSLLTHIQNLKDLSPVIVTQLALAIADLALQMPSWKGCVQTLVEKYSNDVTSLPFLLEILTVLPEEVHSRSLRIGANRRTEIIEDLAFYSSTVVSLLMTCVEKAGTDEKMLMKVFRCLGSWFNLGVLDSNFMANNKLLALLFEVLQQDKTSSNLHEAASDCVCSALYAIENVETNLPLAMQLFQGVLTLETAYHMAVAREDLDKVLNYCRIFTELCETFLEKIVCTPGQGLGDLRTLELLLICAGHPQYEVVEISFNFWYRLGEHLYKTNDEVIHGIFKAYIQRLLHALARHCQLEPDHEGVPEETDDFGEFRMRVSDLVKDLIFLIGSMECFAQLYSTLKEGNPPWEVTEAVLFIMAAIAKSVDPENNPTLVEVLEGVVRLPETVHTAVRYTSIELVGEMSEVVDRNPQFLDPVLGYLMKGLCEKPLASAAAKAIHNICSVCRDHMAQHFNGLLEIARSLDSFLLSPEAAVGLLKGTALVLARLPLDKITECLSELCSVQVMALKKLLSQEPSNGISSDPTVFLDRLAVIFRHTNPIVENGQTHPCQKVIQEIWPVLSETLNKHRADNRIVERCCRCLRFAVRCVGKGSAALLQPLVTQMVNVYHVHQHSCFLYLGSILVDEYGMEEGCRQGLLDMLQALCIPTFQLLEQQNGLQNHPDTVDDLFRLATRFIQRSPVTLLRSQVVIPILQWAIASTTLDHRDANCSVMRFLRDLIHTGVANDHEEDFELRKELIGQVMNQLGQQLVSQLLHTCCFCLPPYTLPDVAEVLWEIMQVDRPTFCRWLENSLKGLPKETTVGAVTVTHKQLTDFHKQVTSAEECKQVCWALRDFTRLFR

[2] = molecular target: T2, GST.TNPO3.ΔCargo(1-501) (human) (UniProt Q9Y5L0); assay: pull-down
T2 sequence: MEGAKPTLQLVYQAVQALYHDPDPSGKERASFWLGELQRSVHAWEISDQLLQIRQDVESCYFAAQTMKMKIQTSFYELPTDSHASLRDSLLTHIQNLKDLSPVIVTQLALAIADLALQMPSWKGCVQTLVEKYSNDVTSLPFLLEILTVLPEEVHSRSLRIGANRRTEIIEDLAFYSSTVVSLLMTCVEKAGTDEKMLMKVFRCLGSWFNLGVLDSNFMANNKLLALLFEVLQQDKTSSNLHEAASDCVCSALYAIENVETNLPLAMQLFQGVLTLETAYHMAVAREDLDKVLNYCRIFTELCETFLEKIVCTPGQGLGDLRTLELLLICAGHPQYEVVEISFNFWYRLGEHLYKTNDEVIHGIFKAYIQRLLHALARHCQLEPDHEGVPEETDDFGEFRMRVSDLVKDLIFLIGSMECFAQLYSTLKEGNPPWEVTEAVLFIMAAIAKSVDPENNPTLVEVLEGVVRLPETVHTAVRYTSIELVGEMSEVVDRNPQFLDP

Q: How did the binding [1] turn out when “Gag.ΔSPΔNC (Rous sarcoma virus) (domain or fragment)” was run?
A: binds weakly

Q: What about the binding [2] of the same substance?
A: binds weakly

Q: Which results are given for “ΔMBD.Gag (Rous sarcoma virus) (domain or fragment)”?
A: binding [1]: binds weakly; binding [2]: binds weakly

Q: What does the source list for “MA.p2.p10.CA-NTD (Rous sarcoma virus) (domain or fragment)”?
A: binding [1]: binds weakly; binding [2]: binds weakly
